Measurements published in patent US12703731B2, “Long-acting GLP-1 compound” (Gan & Lee Pharmaceuticals Co., Ltd., priority 2019, dated 2026).
For some of these results: For at least one compound, name, drawing or mass did not settle the structure. Some results were stated once for a whole list of compounds, not compound by compound. Some compounds share one range, which may span the group rather than tell each member.

Experiments:
db/db mice [1] = assay: Single-dose pharmacodynamic study on db/db mice (Example 5); format: in vivo; conditions: single s.c. 100 μg/kg
Description: The title compounds of Examples 1-4 and Comparative Examples 1-4 (also known as GLP-1 derivatives) were tested in a single dose study on an obese mouse model (db/db mice) with type 2 diabetes (T2DM). The hypoglycemic drug effect of the GLP-1 derivatives was tested at a dose of 100 μg/kg.
Male db/db (BKS/Lepr) mice aged 8-9 weeks were housed in appropriately sized feeding cages in a barrier environment and had free access to standard food and purified water, with environmental conditions controlled at 40%-60% relative humidity (RH) and 22-24° C. After an adaptation period of 1-2 weeks, the mice were used in the experiment.
Before the start of the experiment on the day, the mice were evaluated for baseline blood glucose at about 9:30 a.m. and weighed. […]
The GLP-1 derivatives were dissolved in the vehicle to an administration concentration of 20 μg/mL, and the administration volume was 5 mL/kg (i.e., 50 μL/10 g body weight). […] The tail of each mouse was cleaned with an alcohol cotton ball, and blood drops were collected from the tail using a disposable blood collection needle and measured with a glucometer and accompanying testing strips (Roche). Food intake and body weight of each mouse were measured at 24 h, 48 h and 72 h after the administration.
The percentage of blood glucose at each monitoring point was obtained by dividing the blood glucose at the corresponding time point after the administration by the baseline blood glucose before the administration; the dose-response curve of percentage of blood glucose versus time was plotted for each single dose of GLP-1 derivative; in order to quantify the effect of GLP-1 derivatives on blood glucose, the area under the curve of the percentage of blood glucose versus time from 0 h to 72 h (AUC0-72h) was calculated for each individual dose-response curve. […]

db/db mice [2] = assay: Single-dose blood glucose dose-response (ED50 of ΔAUC 0-72 h) in db/db mice; format: in vivo; conditions: single s.c. dose 0.3-100 nmol/kg

Compound | effective duration of action on db/db mice compared to liraglutide and Comparative Examples 3-4 (db/db mice [1]) | ED50 of the effect on blood glucose (db/db mice [2]) [nmol/kg]
N-ε^26-[2-(2-[2-(2-[2-(2-[4-(19-carboxynonadecanoylamino)-4(S)-carboxybutanoylamino]ethoxy)ethoxy]acetylamino)ethoxy]ethoxy)acetyl][Gly8, Arg34]GLP-1-(7-37) peptide [Compound 1] | significantly longer than that of liraglutide and the compounds of Comparative Examples 3-4 | 
N-ε^26-(19-carboxynonadecanoylamino)-4(S)-carboxybutanoyl-[Arg34]GLP-1-(7-37) Peptide [Compound 4] | significantly longer than that of liraglutide and the compounds of Comparative Examples 3-4 | 
CCCCCCCCCCCCCCCC(=O)N[C@@H](CCC(=O)NCCCC[C@H](NC(=O)[C@H](C)NC(=O)[C@H](C)NC(=O)[C@H](CCC(N)=O)NC(=O)CNC(=O)[C@H](CCC(=O)O)NC(=O)[C@H](CC(C)C)NC(=O)[C@H](Cc1ccc(O)cc1)NC(=O)[C@H](CO)NC(=O)[C@H](CO)NC(=O)[C@@H](NC(=O)[C@H](CC(=O)O)NC(=O)[C@H](CO)NC(=O)[C@@H](NC(=O)[C@H](Cc1ccccc1)NC(=O)[C@@H](NC(=O)CNC(=O)[C@H](CCC(=O)O)NC(=O)[C@H](C)NC(=O)[C@@H](N)Cc1cnc[nH]1)[C@@H](C)O)[C@@H](C)O)C(C)C)C(=O)N[C@@H](CCC(=O)O)C(=O)N[C@@H](Cc1ccccc1)C(=O)N[C@H](C(=O)N[C@@H](C)C(=O)N[C@@H](Cc1c[nH]c2ccccc12)C(=O)N[C@@H](CC(C)C)C(=O)N[C@H](C(=O)N[C@@H](CCCNC(=N)N)C(=O)NCC(=O)N[C@@H](CCCNC(=N)N)C(=O)NCC(=O)O)C(C)C)[C@@H](C)CC)C(=O)O [liraglutide] |  | 9.68
N-ε^26-[2-(2-[2-(4-[19-carboxynonadecanoylamino]-4(S)-carboxybutanoylamino)ethoxy]ethoxy)acetyl][Gly8, Arg34]GLP-1-(7-37) Peptide [Compound 2] | significantly longer than that of liraglutide and the compounds of Comparative Examples 3-4 | 
